The nature of this series: general procedure: Fmoc solid-phase peptide synthesis; ChemMatrix Rink amide resin; HATU with NMM. The following applies: conjugation step.

Hex-4Npa-(K′2-P)10—K4—NH2: the conjugation yield is given as 20-40%.

(Values after patent US20240150824 (published 2024).)
